Results are given in words; binding and its absence hold for the method and conditions named. Binding seen in cells or lysates may run through a third protein. Some entries that bind do so weakly or less than the wild type.

The target in the assay is T1, ZMYND12 (Zinc Finger, MYND domain containing 12) (mouse (endogenous in testis)) (UniProt A2BGJ5).
T1 sequence: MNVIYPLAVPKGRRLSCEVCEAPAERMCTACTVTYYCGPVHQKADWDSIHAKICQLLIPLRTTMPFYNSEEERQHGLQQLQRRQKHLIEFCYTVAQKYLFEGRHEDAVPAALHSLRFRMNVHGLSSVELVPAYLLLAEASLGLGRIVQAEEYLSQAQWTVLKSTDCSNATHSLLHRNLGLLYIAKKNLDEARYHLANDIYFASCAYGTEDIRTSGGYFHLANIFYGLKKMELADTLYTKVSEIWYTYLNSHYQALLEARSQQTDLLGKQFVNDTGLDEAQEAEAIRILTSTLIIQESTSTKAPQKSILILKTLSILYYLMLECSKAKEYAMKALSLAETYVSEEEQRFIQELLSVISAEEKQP
Nature of the assay: co-IP; testicular proteins extracted in RIPA buffer, precleared, incubated overnight at 4 °C with antibody, protein A/G magnetic beads, 5 washes with RIPA buffer, western blot; rabbit IgG as negative control.

B1: TTC29 (protein, UniProt Q80VM3 1-471)
chain: MATFPPLPMTHTRLAILARQKLPCSSKKIPRAQLIKEKEDIDYYLEQNFKGLSKEEVAAHRNSYKKSICVDMLRDGFHKSFTELFALMEQWDKLPEAAKAQSLFWQQRPLEDQPDKLDNFYHYLTRAEAAERKGYYEEVYNNLYALACYFDNSEDKWVRNHFYERCFNIAQLIKADGGKKEAEAESHMGLLFEEEGELLKAAEHYEAFHELTHGRLWKDGTGQLLNLVACESLVRTYRLLSDRMLENKDYKQAIKILIKASEIAREGNDRSMEGEASYYLGLAHLASGEYETALTVLNRYSEISTSLDDDHGLGRAYEAIAKALQSQGETTEAINYLEKFVTIARNNLQSLDMIRACTMLGDIYNEKGQYSKASEYFQQAFSTAMELMKTALMDETKVHYGIARAHQMMLAMKGYIESADSNGLNCLLSWKETRTQIEYDPILGESRRATEDNIYQLPDAEEETRRSPENQ
As to B1, the binding entry is recorded as “binds”.

The values above are taken from PMC11335240.
